Measurements taken from patent US20110300139A1 (GENE TECHNO SCIENCE, published 2011).
No constants are given. Whether binding was seen depends on the method and setting. Some results given as binding are weak or reduced against the parent protein; the word gives no strength. Each block holds one binder with its values, some of them ahead of it.

Columns and labels:
human α9 integrin [1] = target: T1, human α9 integrin (human, UniProt Q13797 30-1035); test: hybridoma screening on cells
T1 sequence: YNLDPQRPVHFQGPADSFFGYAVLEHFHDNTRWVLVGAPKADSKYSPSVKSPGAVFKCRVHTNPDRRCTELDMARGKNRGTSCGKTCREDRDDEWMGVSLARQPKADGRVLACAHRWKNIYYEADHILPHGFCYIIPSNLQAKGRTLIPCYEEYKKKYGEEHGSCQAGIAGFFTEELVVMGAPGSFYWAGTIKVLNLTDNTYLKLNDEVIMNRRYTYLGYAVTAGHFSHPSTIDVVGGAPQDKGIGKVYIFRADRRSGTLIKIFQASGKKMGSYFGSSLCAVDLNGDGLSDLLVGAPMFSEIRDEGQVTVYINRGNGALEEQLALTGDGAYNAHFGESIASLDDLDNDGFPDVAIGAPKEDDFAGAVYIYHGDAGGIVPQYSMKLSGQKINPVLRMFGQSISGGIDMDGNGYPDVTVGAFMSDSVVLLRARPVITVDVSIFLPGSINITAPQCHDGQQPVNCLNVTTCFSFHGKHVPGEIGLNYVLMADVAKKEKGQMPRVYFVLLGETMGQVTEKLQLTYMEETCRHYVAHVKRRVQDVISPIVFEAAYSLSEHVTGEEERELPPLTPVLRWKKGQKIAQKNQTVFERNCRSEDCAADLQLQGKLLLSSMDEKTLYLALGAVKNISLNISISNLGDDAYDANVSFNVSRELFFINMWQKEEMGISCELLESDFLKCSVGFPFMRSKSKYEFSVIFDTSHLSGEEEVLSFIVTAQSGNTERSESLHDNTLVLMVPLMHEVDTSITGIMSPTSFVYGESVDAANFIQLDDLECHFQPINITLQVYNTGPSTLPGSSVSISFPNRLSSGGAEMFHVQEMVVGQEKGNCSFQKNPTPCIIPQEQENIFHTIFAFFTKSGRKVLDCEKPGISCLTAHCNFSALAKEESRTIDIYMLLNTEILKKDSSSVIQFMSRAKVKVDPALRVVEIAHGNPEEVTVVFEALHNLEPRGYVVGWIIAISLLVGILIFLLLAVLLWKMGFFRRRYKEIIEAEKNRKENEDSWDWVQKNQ

human α9 integrin [2] = target: T1, human α9 integrin; test: cell ELISA on CHO/huα9 cells, transiently expressed antibody

binding (human α9 integrin [1]): binds
B1: mouse K33N monoclonal antibody (hybridoma FERM BP-10830) (antibody, mouse IgG1, V domains shown)
VH: QVQLQQSGPELVKPGASVKISCKASGYSFTSYYMNWVKKRPGQGLEWIGWIFPGSGNTKYNEKFKGKATLTADTSSSTAYMQVSSLTSEDSAVYFCARSWVSYERGYYFDYWGQGTSLTVSS
VL: DIQMTQSPASLAASVGETVTLTCRASENIYYSLAWYQQKQGKSPQLLIYNANSLEDGVPSRFSGSGSGTQYSMKINSMQPEDTATYFCKQAYDVPYTFGGGTKLEIK
notes: also called mouse K33N antibody

binding (human α9 integrin [2]): binds
B2: chimeric K33N IgG1/κ antibody (antibody, V domains shown)
VH: B1 VH
VL: B1 VL
notes: Mouse K33N variable regions on human gamma-1 and kappa constant regions (vector pChK33N); also called ChK33N

binding (human α9 integrin [2]): binds
B3: humanized K33N IgG1/κ antibody (antibody, V domains shown)
VH: QVQLVQSGAEVKKPGASVKVSCKASGYSFTSYYMNWVRQAPGQRLEWIGWIFPGSGNTKYNEKFKGKATLTADTSASTAYMELSSLRSEDTAVYYCARSWVSYERGYYFDYWGQGTLVTVSS
VL: DIQMTQSPSSLSASVGDRVTITCRASENIYYSLAWYQQKPGKAPKLLIYNANSLEDGVPSRFSGSGSGTQYTLTISSLQPEDFATYYCKQAYDVPYTFGQGTKVEIKR
notes: also called HuK33N
